# Results reported in PMC12431657, “Discovery and mechanistic insights of dibenzoylmethane as a broad spectrum inhibitor of coronavirus” (PLOS Pathogens, 2025).
# Counter-ions that a name gives are not always drawn. Like-named read-outs stand apart in the source and are kept apart here. Among all 3,300 compounds or so, about 95 (3%) showed an effect of 50% or more. The list shows a part of the results.
# Tested on: HCoV-229E
# Design: species or system Huh-7; HTS, protection from HCoV-229E induced cell death, luminescent cell viability (CellCounting-Lite 2.0), inhibition rate
# Settings: 24 h post infection, 1 h compound pre-incubation, 10 µM, inhibitor
SMILES,229E Inhibition rate,"229E Inhibition rate (229E Inhibition rate, 24 h)"
COc1ccc(-c2cc(=O)c3c(OC)c(OC)c(OC)cc3o2)cc1OC [Sinensetin],36.1%,–
COc1cc2c(cc1OC)[C@H]1Cc3ccc(OC)c(OC)c3CN1CC2 [D-Tetrahydropalmatine],11.9%,–
CC(=O)O[C@H]1CC[C@]2(C)[C@H]3CC=C4[C@@H]5[C@@H](C)[C@H](C)CC[C@]5(C(=O)O)CC[C@@]4(C)[C@]3(C)CC[C@H]2C1(C)C [Ursolic acid acetate],6%,–
O=C(O)C[C@H](C(=O)O)[C@H]1c2c(cc(O)c(O)c2O)C(=O)O[C@@H]1C(=O)O [Chebulic acid],20.4%,–
"C[C@H](O)[C@H](O)C1=Nc2c(nc(N)[nH]c2=O)NC1 [7,8-Dihydro-L-biopterin]",24.5%,–
CC1OCCC1=O (stereo not shown) [2-Methyltetrahydrofuran-3-one],9.2%,–
COc1ccc2c(c1)OC[C@@H](c1cc(O)c(OC)c(OC)c1O)C2 [Colutehydroquinone],7.3%,–
COc1ccc(-c2cc(=O)c3c(O)c(OC)c(O)cc3o2)cc1 [Pectolinarigenin],11.1%,–
CC1(C)[C@H](C(=O)O)CC[C@]1(C)C(=O)O [(-)-Camphoric acid],18.8%,–
COc1ccc([C@H]2O[C@@H](c3ccc(OC)c(OC)c3)[C@H](C)[C@H]2C)cc1OC [Veraguensin],19%,–
C[S+]([O-])CC[C@H](N)C(=O)O (stereo partly shown) [Methionine sulfoxide],–,10.9%
OC[C@H]1O[C@@](CO)(O[C@H]2O[C@H](CO)[C@@H](O)[C@H](O)[C@H]2O)[C@@H](O[C@H]2O[C@H](CO)[C@@H](O)[C@H](O)[C@H]2O)[C@@H]1O [D-(+)-Melezitose],7.9%,–
CC(=O)O[C@@H]1C[C@@H]2CC[C@@]1(C)C2(C)C [(-)-Bornyl acetate],7.4%,–
CC(C)[C@H](N)C(=O)O [L-Valine],15.3%,–
O=C(O)c1ccco1 [2-Furoic acid],5.4%,–
O=C(/C=C/C=C/c1ccc2c(c1)OCO2)N1CCCCC1 [Piperine],13.7%,–
C[C@@H]1O[C@@H](OC[C@H]2O[C@@H](Oc3c(-c4ccc(O)cc4)oc4cc(O)cc(O)c4c3=O)[C@H](O)[C@@H](O)[C@@H]2O)[C@H](O)[C@H](O)[C@H]1O [Nicotiflorin],40%,–
O=c1c2ccccc2nc2n1CCc1c-2[nH]c2ccccc12 [Rutaecarpine],28%,–
C[C@H]1[C@H](C)CC[C@]2(C(=O)O)CC[C@]3(C)C(=CC[C@@H]4[C@@]5(C)CC[C@@H](O)C(C)(C)[C@@H]5CC[C@]43C)[C@H]12 [3-Epiursolic Acid],7.8%,–
COc1cc(/C=C/c2cc(O)cc(O)c2)ccc1O [Isorhapontigenin],0%,–
O=C(O)CCCCC1CCSS1 (stereo not drawn) [α-Lipoic Acid],10.7%,–

# Random excerpt: 2 entries already listed
SMILES,229E Inhibition rate,"229E Inhibition rate (229E Inhibition rate, 24 h)"
COc1cc2c(cc1OC)[C@H]1Cc3ccc(OC)c(OC)c3CN1CC2 [D-Tetrahydropalmatine],11.9%,–
CC(C)[C@H](N)C(=O)O [L-Valine],15.3%,–

# Next part:

SMILES,229E Inhibition rate,"229E Inhibition rate (229E Inhibition rate, 24 h)"
CC(C)=CCC/C(C)=C/CC/C(C)=C/CC/C(C)=C/CO [Geranylgeraniol],25.5%,–
N=C(N)NCCCCN [Agmatine (sulfate)],16.1%,–
C[C@H](C[C@H](O)[C@H]1OC1(C)C)C1=C2C[C@H](O)[C@H]3[C@@]4(C)CCC(=O)C(C)(C)[C@@H]4CC[C@]3(C)[C@@]2(C)CC1 [Alisol B],18.2%,–
C=C(C)[C@@H]1CC=C(C=O)CC1 [L-Perillaldehyde],0%,–
C=C1C(=O)O[C@H]2C1CC[C@@](C)(O)C13C=CC(C)(C21)C1(C3)C(=O)O[C@@H]2C3C(C)=CCC3[C@](C)(O)[C@H](OC(C)=O)CC21 (stereo partly shown) [Handelin],0%,–
COc1cc(/C=C/c2ccc(OC)c(OC)c2)oc(=O)c1 [11-Methoxyyangonin],18.3%,–
COc1cc2c(cc1O)C[C@H]1c3cc(O)c(OC)cc3CC[N+]1(C)C2 (stereo partly shown) [Phellodendrine (chloride)],41.3%,–
CCCCCCCCCCCCCCCCCCCCCCCC(=O)OC [Methyl tetracosanoate],11.5%,–
CC(=O)O[C@H]1C[C@H]2CC[C@]1(C)C2(C)C [Bornyl acetate],0%,–
CCCCCCCCCCCCCCCCCCCCCCC(=O)O [Tricosanoic acid],43.7%,–
COc1ccc2c(C)c3[n+](cc2c1OC)CCc1cc2c(cc1-3)OCO2 [13-Methylberberine (chloride)],18.9%,–
CC(=O)O[C@H]1C[C@@]2(C)[C@@H](C[C@@H](O)[C@H]3[C@@]4(C)CC[C@@H](O)[C@@H](C)[C@@H]4CC[C@@]32C)/C1=C(\CCC=C(C)C)C(=O)O [Fusidic acid (sodium salt)],–,24.6%
C=C[C@@H]1CNC(=S)O1 [Epigoitrin],34.1%,–
Cc1ccc(C=O)o1 [5-Methylfurfural],6.8%,–
C[S+]([O-])CCCC/C(=N\OS(=O)(=O)O)S[C@@H]1O[C@H](CO)[C@@H](O)[C@H](O)[C@H]1O (stereo partly shown) [Glucoraphanin],11.2%,–
CCCCCCCCCC(C)=O [2-Undecanone],19.4%,–
CCCCCCCCCCCCCCCCC(=O)O [Heptadecanoic acid],7.8%,–
COC(=O)/C=C/c1ccc(O)c(OC)c1 [Ferulic acid methyl ester],10.1%,–
OC[C@H]1O[C@@](CO)(OC[C@@]2(OC[C@@]3(O[C@H]4O[C@H](CO)[C@@H](O)[C@H](O)[C@H]4O)O[C@H](CO)[C@@H](O)[C@@H]3O)O[C@H](CO)[C@@H](O)[C@@H]2O)[C@@H](O)[C@@H]1O [Nystose],0%,–
C1CCN2C[C@H]3C[C@H](CN4CCCC[C@@H]34)[C@H]2C1 [(+)-Sparteine],–,16.6%
C[C@@H]1CC[C@]2(C(=O)O)CC[C@]3(C)C(=CC[C@@H]4[C@@]5(C)C[C@@H](O)[C@H](O)C(C)(C)[C@@H]5CC[C@]43C)[C@@H]2[C@]1(C)O [Tormentic acid],16.1%,–
